Some results were stated once for a whole list of compounds, not compound by compound.
Tested on: RARE-G5-TATA reporter (GAL4-VP16 driven transcription)
Test: Transcriptional repression of GAL4-VP16 activation, RARE-G5-TATA reporter, transfected HeLa cells
Format: cell-based
Conditions: 50 ng expression vector
Protocol: FIG. 2. Role of the coiled coil of PML in the altered transcriptional properties of PML-RAR (A): Transcriptional repression by RAR and fusion proteins. Hela cells were co-transfected with the RARE-G5-TATA reporter in the absence (C) or presence of increasing amounts (50, 100, 250, 1000 ng) of the indicated expression vectors and then harvested 48 hours after transfection. Levels of expression of RAR and fusion proteins after transfection are shown in (C). (B) RARE and NCoR dependent transcriptional repression by RAR and fusion proteins. Hela cells were co-transfected with the RARE-G5-TATA or the G5-TATA, reporters and 1 μg of control expression vector (C), RAR (R), PML-RAR (P/R) and their respective AHT derivatives, as indicated. (D) RA sensitivity of RAR and fusion proteins. Cells were co-transfected with 500 ng of the indicated expression vectors. 24 hours after transfection, RA was added at the following concentrations: 1, 10, 100 nM, 1, 10 μM, and cells were harvested after additional 24 hours.
To test this hypothesis, the inventors devised an artificial, reporter system to measure transcriptional repression by RAR and chimeric proteins. The RARE-G5-TATA reporter construct has five GAL4 response elements fused to a minimal promoter region: upstream of the GAL4 sites, a RA responsive element (RARE) allows binding of RAR (or fusion proteins). […]

B1: PML-RAR: leukaemia-associated chimeric transcription factor, fusion of PML and RAR (protein)
chain: MEPAPARSPRPQQDPARPQEPTMPPPETPSEGRQPSPSPSPTERAPASEEEFQFLRCQQCQAEAKCPKLLPCLHTLCSGCLEASGMQCPICQAPWPLGADTPALDNVFFESLQRRLSVYRQIVDAQAVCTRCKESADFWCFECEQLLCAKCFEAHQWFLKHEARPLAELRNQSVREFLDGTRKTNNIFCSNPNHRTPTLTSIYCRGCSKPLCCSCALLDSSHSELKCDISAEIQQRQEELDAMTQALQEQDSAFGAVHAQMHAAVGQLGRARAETEELIRERVRQVVAHVRAQERELLEAVDARYQRDYEEMASRLGRLDAVLQRIRTGSALVQRMKCYASDQEVLDMHGFLRQALCRLRQEEPQSLQAAVRTDGFDEFKVRLQDLSSCITQGKDAAVSKKASPEAASTPRDPIDVDLPEEAERVKAQVQALGLAEAQPMAVVQSVPGAHPVPVYAFSIKGPSYGEDVSNTTTAQKRKCSQTQCPRKVIKMESEEGKEARLARSSPEQPRPSTSKAVSPPHLDGPPSPRSPVIGSEVFLPNSNHVASGAGEAIETQSSSSEEIVPSPPSPPPLPRIYKPCFVCQDKSSGYHYGVSACEGCKGFFRRSIQKNMVYTCHRDKNCIINKVTRNRCQYCRLQKCFEVGMSKESVRNDRNKKKKEVPKPECSESYTLTPEVGELIEKVRKAHQETFPALCQLGKYTTNNSSEQRVSLDIDLWDKFSELSTKCIIKTVEFAKQLPGFTTLTIADQITLLKAACLDILILRICTRYTPEQDTMTFSDGLTLNRTQMHNAGFGPLTDLVFAFANQLLPLEMDDAETGLLSAICLICGDRQDLEQPDRVDMLQEPLLEALKVYVRKRRPSRPHMFPKMLMKITDLRSISAKGAERVITLKMEIPGSMPPLIQEMLENSEGLDTLSGQPGGGGRDGGGLAPPPGSCSPSLSPSSNRSSPATHSP
  repression of GAL4-VP16 activation: 30-40%
